Changes are numbered by the printed parent chain. Results are given in words; binding and its absence hold for the method and conditions named. Binding can be weak; no strength is given.
B1: anti-Bsg^A (antibody, V domains shown)
VH: EVQLVESGGGLVLPGRSMKLSCAASGFTFRTYYMAWVRQAPTKGLEWVASISIGGDNTYYRDSVMGRFTISRDDAKSTLHLQMDNLRSEDTATYYCVRLRGYFDYWGQGVMVTVSS
VL: EIVLTQSPATMPASPGEKVTLTCRASSSIRYIYWYQQKSGTSPKLWIYDTSKLASGVPNRFSGSGSGTSYSLTISSMETEDTATYYCQQGRSYPLTFGSGTKLEIK
notes: also called bivalent (monospecific) anti-Bsg^A
B2: anti-Bsg^B (antibody, V domains shown)
VH: EVQLVESGGGLVQPGRSLKLSCVASGFTFNNYWMTWIRQAPGKGLEWFASITNTGGSTYYPDSVKGRFTISRDNAQSTLYLQTNSLRPEDTATYYCARRDGSYYPYYWYFDLWGPGTTVTVSS
VL: NTVMTQSPTSMFISVGDRVTMNCKASRSVGTNVDWYQQKTGQSPTLLFYGASNRYIGVPDRFTGSGSGTDFTLTISNMQAEDLAVYYCLQYNYNWAFGGGTKLELK
notes: also called bivalent (monospecific) anti-Bsg^B
B3: anti-Bsg^C (antibody, V domains shown)
VH: EVQLVESGGSLVQPGRSMKVSCAASGFTFTKYYMAWVRQAPTKGLEWVASISTGGGNTYYRDSVKGRFTISRDNAKSTLYLQMDSLRSEDTATYYCARTLINYSDYADYVMDAWGQGASVTVSS
VL: DIQMTQSPASLSASLGETVSIECLASEGISNSLAWYQQKPGKSPQLLIYGASSLQDGVPSRFSGSGSGTQFSLKISGMQPEDEGIYYCQQGYKYPFTFGSGTKLEIK
B4: anti-Bsg^D (antibody, V domains shown)
VH: EVQLVESGGGLVQPGRSMKLSCAASGFTLSNYYMAWVRQAPTKGLEWVASISTGGGYTYYRDSVKGRFTISRDLAKSTLYLQMDSLRSEDTATYHCARSLINYRNYGDYVMDAWGQGASVTVSS
VL: B3 VL with G50D, D56V, F71Y, M78L, I85V
B5: anti-Bsg^E (antibody, V domains shown)
VH: QVQLKESGPGLVQPSQTLSLTCSVSGLSLTTSSLSWIRQPPGKGLEWMGGIWSKGGTEYNSPIKSRLSISRDTSKSQIFLKMNSLQTEDTAMYFCARNGVYHNYWYFDFWGPGTMVTVSS
VL: QFTLTQPKSVSGSLRSTITIPCERSSGDIGHNYVSWYQQHLGRPPINVIYADDQRPSEVSDRFSGSIDSSSNSASLTITNLQMDDEADYFCQSYDSNVDIVFGGGTKLTVL

The chains behind the UniProt entries cited, without tags or fusion partners. Where a name states a change or a piece, a line headed by the entry shows the natural chain unless it says otherwise.
UniProt P18572: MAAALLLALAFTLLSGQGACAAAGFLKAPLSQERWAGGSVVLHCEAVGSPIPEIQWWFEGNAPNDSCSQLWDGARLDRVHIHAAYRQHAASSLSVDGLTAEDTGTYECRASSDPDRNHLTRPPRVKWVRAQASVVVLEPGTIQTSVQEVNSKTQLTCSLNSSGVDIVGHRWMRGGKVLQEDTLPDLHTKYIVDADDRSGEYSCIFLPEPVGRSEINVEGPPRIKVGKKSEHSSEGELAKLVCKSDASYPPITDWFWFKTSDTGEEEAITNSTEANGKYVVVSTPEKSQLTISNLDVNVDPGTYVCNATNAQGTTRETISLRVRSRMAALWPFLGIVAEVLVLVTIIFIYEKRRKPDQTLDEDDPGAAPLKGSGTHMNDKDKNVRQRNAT

Columns and labels:
[1] = biological target: murine basigin (on cells) (murine) (UniProt P18572); assay: immunohistochemistry of mouse cortical tissue 1 hour after 5 mg/kg i.v. dose (in vivo binding)
[2] = biological target: murine basigin (on cells) (murine) (UniProt P18572); assay: flow cytometry, HEK293 cells transfected with murine basigin, PE-labelled secondary antibody
[3] = biological target: murine basigin (on cells) (murine) (UniProt P18572); assay: flow cytometry, HEK293 cells transiently expressing murine basigin
[4] = biological target: murine basigin (on cells) (murine) (UniProt P18572); assay: flow cytometry, HEK293 cells transfected with murine basigin
[5] = biological target: murine basigin (on cells) (murine) (UniProt P18572); assay: as for anti-Bsg^A and anti-Bsg^B (in vivo immunohistochemistry; possibly also flow cytometry)

| Binder | binding [1] | binding [2] | binding [3] | binding [4] | binding [5] |
| --- | --- | --- | --- | --- | --- |
| B1 | binds | binds | binds | binds | – |
| B2 | binds | binds | binds | binds | – |
| B3 | – | – | – | – | binds |
| B4 | – | – | – | – | binds |
| B5 | – | – | – | – | binds |

Reference: patent US20180000964A1 (Genentech, published 2018)
